Assay results as given in publication doi:10.1101/251603.
Results are given in words; binding and its absence hold for the method and conditions named. In cells and extracts the contact can be indirect. A result given as binding can be weak or reduced; the word gives no strength. Where a sequence is shown, tags or fusion partners need not be part of it.

Chains of the proteins cited; added tags and fusions are not shown. Lines headed by an entry give the natural chain unless they say otherwise; changes in a name come on top.
UniProt P18616: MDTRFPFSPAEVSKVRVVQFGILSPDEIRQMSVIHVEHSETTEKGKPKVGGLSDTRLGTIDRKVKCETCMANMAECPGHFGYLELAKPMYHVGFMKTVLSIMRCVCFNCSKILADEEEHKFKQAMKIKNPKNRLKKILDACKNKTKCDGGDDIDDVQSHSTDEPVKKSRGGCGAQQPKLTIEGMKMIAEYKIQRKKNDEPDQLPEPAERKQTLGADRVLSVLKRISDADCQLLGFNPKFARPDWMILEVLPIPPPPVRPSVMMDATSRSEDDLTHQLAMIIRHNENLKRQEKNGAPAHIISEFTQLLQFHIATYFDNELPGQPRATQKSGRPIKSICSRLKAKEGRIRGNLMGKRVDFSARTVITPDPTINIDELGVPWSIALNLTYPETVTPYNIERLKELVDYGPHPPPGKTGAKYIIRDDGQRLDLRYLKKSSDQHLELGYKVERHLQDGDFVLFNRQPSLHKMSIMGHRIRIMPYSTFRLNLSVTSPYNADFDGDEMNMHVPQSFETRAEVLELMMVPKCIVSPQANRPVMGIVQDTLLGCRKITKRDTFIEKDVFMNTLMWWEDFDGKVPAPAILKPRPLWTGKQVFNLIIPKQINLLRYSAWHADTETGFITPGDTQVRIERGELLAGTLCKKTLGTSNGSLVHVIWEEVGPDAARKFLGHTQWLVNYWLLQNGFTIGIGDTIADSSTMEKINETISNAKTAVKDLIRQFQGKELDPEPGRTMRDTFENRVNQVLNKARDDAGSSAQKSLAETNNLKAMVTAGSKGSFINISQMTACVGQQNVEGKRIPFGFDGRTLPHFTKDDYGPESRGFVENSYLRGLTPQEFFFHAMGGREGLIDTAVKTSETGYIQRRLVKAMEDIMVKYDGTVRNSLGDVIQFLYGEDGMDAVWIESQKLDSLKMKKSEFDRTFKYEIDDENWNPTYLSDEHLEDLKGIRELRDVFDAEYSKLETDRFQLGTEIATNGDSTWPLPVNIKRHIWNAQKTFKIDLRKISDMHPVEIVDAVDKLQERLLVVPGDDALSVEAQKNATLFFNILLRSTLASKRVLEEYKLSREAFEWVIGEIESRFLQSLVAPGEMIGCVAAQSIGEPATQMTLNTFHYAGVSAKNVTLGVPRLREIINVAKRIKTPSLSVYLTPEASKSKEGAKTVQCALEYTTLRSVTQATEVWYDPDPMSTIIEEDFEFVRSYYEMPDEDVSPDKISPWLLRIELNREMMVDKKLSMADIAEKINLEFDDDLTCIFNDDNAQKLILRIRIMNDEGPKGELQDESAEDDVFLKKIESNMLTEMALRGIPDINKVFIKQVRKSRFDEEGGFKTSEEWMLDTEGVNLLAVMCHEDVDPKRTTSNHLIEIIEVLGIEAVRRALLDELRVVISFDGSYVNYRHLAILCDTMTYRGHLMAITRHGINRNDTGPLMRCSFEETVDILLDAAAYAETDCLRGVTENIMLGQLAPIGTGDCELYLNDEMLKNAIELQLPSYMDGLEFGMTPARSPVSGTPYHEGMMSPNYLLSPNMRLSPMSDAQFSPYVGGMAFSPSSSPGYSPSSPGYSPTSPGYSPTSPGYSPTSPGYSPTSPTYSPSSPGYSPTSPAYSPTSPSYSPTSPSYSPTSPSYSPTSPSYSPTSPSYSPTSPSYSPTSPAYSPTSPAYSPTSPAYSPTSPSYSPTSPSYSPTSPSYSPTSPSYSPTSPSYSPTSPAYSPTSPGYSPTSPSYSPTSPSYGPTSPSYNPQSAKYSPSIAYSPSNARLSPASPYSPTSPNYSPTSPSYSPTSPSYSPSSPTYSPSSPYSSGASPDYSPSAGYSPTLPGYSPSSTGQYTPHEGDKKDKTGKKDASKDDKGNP

Biological target: cLUC-CTD (Arabidopsis thaliana) (UniProt P18616)
Assay: split reporter

B1: ELP4-nLUC (protein, UniProt Q9C778 1-355)
chain: MAAPNVRSSSSFSRNISVVSSPQIPGLKSGPNGTAFISSGIRDLDRILGGGYPLGSLVMVMEDPEAPHHMDLLRTYMSQGLVNNQPLLYASPSKDPKGFLGTLPHPASSKEDKPTAPDPDQGESLRIAWQYRKYLENQKNAIDDYSNDFDMRKPLERQFLSGRPIDCVSLLDSSDLSIAQDHCATFLSKFPRNSSNIASIGRIAIQSFCSPLCEYSEKESDMLSFIRLLKSMLMVSNAVAIVTFPPSLLSPSSSKRLQHMADTLLSIKAIPDGDKELEKLLTGYKDINGFLNIHKVARINTQVPVILEAKTFSMSLKKRRFLALECLNQAPVDGSSGTSYGTSGSCSSKSGALDF
binding: binds
